Source: publication PMC9761964
No constants are given. Whether binding was seen depends on the method and setting. Binding seen in cells or lysates may run through a third protein. Some binding calls cover weakened binding; strength is not graded here.

Chains of the proteins cited; added tags and fusions are not shown.
UniProt P20719: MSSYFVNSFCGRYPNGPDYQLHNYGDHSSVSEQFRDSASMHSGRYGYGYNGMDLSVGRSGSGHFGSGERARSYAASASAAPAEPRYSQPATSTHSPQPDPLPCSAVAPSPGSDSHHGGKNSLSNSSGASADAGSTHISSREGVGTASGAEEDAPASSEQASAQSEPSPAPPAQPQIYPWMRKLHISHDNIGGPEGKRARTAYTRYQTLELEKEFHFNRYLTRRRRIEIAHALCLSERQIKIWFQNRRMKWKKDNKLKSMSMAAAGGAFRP
UniProt Q9UJW3: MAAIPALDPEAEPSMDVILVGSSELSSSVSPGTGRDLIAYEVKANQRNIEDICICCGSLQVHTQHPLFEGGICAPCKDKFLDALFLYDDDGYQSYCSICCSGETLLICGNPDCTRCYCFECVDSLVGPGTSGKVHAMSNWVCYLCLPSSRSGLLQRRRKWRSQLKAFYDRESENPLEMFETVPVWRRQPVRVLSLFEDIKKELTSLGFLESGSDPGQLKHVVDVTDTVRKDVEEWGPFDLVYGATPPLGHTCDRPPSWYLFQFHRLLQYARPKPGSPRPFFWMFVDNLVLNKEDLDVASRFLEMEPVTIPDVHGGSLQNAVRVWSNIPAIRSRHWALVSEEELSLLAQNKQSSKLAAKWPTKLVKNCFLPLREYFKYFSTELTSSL

Target: Flag-HOXA5 (UniProt P20719)
Assay: co-IP; immunoprecipitation with Flag antibody in Flag-HOXA5 overexpression 769P cells; non-specific IgG as negative control; partners detected by blot

- binding: binds
Substance: DNMT3L (from UniProt Q9UJW3 1-386)
